US20070128661A1 (Harvard, published 2007)
No constants are given. Whether binding was seen depends on the method and setting. Binding seen in cells or lysates may run through a third protein. Some entries that bind do so weakly or less than the wild type.

Sequences of proteins named here, by UniProt entry; tags and fusion partners are left off.
UniProt Q04207: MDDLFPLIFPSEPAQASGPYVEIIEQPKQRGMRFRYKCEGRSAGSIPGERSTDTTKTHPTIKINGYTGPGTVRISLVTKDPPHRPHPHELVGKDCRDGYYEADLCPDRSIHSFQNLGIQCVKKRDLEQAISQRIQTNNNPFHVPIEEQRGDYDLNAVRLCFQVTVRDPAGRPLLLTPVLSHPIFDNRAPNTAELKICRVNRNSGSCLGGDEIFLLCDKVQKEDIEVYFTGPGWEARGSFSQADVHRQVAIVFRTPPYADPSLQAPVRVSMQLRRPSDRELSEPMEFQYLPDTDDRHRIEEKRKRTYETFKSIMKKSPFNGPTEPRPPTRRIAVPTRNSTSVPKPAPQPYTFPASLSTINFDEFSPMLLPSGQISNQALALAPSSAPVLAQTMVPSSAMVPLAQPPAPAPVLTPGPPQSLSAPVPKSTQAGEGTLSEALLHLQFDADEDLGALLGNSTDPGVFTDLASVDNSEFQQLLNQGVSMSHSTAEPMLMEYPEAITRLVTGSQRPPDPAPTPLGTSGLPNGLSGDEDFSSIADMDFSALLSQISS

Experiments:
[1] = molecular target: T1, endogenous RelA in mouse Th1 cells (mouse, UniProt Q04207 1-549); assay: coimmunoprecipitation of endogenous proteins from Th1 cells
[2] = molecular target: T1, endogenous RelA in mouse Th1 cells; assay: coimmunoprecipitation of endogenous proteins from developing Th1 cells; in the time course the association did not occur until day 3 and then persisted through day 6

B1: endogenous T-bet in mouse Th1 cells (other, UniProt Q9JKD8 1-530, looked up)
chain: MGIVEPGCGDMLTGTEPMPSDEGRGPGADQQHRFFYPEPGAQDPTDRRAGSSLGTPYSGGALVPAAPGRFLGSFAYPPRAQVAGFPGPGEFFPPPAGAEGYPPVDGYPAPDPRAGLYPGPREDYALPAGLEVSGKLRVALSNHLLWSKFNQHQTEMIITKQGRRMFPFLSFTVAGLEPTSHYRMFVDVVLVDQHHWRYQSGKWVQCGKAEGSMPGNRLYVHPDSPNTGAHWMRQEVSFGKLKLTNNKGASNNVTQMIVLQSLHKYQPRLHIVEVNDGEPEAACSASNTHVFTFQETQFIAVTAYQNAEITQLKIDNNPFAKGFRENFESMYASVDTSVPSPPGPNCQLLGGDPFSPLLSNQYPVPSRFYPDLPGQPKDMISQPYWLGTPREHSYEAEFRAVSMKPTLLPSAPGPTVPYYRGQDVLAPGAGWPVAPQYPPKMSPAGWFRPMRTLPMDPGLGSSEEQGSSPSLWPEVTSLQPEPSDSGLGEGDTKRRRISPYPSSGDSSSPAGAPSPFDKETEGQFYNYFPN
modifications: phosphoserine at S508 found by mass spectrometry in primary Th1 cells
With B1 the binding [1] was “binds” and the binding [2] was “binds”.
